This is a selection; strong and weak results do not stand in their true shares.
compound: COC(=O)C#Cc1ccccc1 [methyl 3-phenylpropiolate]; assay: log2 ratio of iodoacetamide-alkyne labeling of the cysteine site, DMSO over compound (competition); higher = stronger covalent engagement of the cysteine by the compound, active = 1 or more; conditions: 500 µM; treatment time 1 h; system: HEK293T cell lysate
Procedure, shortened: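 HEK293T lysate (2 mg/mL) was treated with DMSO or electrophile (500 µM, 1 h, ambient temperature), then iodoacetamide alkyne (1 h), clicked to sCIP-TMT reagents, pooled, trypsin-digested overnight at 37 °C, streptavidin-enriched and acid-eluted. Peptides were run on Orbitrap Eclipse LC-MS/MS with FAIMS and quantified in FragPipe. The log2 competition ratio per cysteine is mean control-channel over mean compound-channel reporter intensity. Duplicate channels and three replicates were used, and cysteines quantified in only one replicate were excluded.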

Sequences of proteins named here, by UniProt entry; tags and fusion partners are left off. A change or cut given only in a name is not applied to a line headed by its entry.
UniProt A6NDG6: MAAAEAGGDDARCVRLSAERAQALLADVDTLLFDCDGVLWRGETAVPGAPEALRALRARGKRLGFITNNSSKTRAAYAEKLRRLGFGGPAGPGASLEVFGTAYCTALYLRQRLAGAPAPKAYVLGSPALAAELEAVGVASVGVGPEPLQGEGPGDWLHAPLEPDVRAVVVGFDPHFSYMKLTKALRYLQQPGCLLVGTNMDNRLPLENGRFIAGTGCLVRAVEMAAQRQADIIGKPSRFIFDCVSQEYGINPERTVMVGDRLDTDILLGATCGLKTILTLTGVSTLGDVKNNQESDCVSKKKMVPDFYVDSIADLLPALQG
UniProt A5YKK6, whole entry, looked up: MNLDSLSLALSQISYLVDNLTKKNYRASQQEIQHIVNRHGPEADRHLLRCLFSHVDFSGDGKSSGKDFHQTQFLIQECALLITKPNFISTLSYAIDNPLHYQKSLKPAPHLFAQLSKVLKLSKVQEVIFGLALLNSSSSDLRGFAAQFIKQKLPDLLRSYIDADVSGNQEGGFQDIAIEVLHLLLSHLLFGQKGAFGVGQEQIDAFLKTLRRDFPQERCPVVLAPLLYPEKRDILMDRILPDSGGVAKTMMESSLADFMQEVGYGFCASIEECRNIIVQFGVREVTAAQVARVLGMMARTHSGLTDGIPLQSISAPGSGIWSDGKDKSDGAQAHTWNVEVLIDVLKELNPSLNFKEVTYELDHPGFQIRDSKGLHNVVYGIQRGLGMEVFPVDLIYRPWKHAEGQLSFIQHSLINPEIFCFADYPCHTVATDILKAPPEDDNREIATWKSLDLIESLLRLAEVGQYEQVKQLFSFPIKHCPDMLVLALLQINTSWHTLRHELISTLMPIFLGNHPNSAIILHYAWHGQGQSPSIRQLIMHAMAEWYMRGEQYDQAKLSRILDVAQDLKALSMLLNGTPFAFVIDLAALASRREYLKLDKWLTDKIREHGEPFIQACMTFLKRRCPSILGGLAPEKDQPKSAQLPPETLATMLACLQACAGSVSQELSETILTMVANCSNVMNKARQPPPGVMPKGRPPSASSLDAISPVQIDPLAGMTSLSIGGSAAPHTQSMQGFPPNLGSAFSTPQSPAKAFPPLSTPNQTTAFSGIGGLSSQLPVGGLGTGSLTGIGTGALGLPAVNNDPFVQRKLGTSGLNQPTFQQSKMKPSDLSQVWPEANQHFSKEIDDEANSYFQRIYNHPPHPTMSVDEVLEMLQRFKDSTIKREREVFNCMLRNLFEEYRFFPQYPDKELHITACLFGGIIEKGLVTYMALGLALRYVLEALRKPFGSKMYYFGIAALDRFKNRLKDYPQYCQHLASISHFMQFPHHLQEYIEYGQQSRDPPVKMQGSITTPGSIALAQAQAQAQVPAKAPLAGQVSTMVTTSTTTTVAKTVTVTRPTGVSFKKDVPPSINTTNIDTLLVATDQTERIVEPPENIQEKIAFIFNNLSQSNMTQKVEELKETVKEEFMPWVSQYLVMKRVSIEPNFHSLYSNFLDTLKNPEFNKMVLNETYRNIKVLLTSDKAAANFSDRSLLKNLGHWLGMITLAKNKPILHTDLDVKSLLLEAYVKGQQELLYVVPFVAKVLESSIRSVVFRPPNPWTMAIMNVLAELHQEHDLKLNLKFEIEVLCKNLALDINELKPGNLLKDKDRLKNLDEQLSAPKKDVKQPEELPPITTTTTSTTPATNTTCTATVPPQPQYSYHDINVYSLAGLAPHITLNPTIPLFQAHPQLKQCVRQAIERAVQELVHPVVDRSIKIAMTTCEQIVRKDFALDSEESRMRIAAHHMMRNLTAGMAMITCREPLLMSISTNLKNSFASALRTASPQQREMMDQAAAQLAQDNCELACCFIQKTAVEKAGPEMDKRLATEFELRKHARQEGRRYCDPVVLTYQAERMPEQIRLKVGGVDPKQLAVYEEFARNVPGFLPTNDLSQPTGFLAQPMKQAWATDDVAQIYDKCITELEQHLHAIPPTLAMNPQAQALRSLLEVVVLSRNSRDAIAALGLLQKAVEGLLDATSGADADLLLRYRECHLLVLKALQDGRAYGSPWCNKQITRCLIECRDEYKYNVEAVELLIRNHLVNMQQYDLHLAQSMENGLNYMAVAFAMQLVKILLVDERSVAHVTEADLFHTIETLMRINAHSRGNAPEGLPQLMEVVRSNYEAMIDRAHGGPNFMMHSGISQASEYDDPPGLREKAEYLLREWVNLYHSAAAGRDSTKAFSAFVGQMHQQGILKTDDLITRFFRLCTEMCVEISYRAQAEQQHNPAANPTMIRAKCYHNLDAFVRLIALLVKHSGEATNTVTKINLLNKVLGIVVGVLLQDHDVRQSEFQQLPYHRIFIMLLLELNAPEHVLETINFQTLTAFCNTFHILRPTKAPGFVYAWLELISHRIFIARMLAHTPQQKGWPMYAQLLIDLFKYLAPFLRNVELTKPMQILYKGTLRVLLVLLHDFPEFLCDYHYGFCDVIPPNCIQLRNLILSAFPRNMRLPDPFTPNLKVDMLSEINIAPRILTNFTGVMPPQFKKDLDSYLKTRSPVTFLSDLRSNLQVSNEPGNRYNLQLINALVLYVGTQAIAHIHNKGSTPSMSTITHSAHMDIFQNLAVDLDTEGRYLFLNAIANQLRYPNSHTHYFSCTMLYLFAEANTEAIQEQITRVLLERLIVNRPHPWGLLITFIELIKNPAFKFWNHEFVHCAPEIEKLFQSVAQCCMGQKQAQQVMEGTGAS
UniProt A6NHR9: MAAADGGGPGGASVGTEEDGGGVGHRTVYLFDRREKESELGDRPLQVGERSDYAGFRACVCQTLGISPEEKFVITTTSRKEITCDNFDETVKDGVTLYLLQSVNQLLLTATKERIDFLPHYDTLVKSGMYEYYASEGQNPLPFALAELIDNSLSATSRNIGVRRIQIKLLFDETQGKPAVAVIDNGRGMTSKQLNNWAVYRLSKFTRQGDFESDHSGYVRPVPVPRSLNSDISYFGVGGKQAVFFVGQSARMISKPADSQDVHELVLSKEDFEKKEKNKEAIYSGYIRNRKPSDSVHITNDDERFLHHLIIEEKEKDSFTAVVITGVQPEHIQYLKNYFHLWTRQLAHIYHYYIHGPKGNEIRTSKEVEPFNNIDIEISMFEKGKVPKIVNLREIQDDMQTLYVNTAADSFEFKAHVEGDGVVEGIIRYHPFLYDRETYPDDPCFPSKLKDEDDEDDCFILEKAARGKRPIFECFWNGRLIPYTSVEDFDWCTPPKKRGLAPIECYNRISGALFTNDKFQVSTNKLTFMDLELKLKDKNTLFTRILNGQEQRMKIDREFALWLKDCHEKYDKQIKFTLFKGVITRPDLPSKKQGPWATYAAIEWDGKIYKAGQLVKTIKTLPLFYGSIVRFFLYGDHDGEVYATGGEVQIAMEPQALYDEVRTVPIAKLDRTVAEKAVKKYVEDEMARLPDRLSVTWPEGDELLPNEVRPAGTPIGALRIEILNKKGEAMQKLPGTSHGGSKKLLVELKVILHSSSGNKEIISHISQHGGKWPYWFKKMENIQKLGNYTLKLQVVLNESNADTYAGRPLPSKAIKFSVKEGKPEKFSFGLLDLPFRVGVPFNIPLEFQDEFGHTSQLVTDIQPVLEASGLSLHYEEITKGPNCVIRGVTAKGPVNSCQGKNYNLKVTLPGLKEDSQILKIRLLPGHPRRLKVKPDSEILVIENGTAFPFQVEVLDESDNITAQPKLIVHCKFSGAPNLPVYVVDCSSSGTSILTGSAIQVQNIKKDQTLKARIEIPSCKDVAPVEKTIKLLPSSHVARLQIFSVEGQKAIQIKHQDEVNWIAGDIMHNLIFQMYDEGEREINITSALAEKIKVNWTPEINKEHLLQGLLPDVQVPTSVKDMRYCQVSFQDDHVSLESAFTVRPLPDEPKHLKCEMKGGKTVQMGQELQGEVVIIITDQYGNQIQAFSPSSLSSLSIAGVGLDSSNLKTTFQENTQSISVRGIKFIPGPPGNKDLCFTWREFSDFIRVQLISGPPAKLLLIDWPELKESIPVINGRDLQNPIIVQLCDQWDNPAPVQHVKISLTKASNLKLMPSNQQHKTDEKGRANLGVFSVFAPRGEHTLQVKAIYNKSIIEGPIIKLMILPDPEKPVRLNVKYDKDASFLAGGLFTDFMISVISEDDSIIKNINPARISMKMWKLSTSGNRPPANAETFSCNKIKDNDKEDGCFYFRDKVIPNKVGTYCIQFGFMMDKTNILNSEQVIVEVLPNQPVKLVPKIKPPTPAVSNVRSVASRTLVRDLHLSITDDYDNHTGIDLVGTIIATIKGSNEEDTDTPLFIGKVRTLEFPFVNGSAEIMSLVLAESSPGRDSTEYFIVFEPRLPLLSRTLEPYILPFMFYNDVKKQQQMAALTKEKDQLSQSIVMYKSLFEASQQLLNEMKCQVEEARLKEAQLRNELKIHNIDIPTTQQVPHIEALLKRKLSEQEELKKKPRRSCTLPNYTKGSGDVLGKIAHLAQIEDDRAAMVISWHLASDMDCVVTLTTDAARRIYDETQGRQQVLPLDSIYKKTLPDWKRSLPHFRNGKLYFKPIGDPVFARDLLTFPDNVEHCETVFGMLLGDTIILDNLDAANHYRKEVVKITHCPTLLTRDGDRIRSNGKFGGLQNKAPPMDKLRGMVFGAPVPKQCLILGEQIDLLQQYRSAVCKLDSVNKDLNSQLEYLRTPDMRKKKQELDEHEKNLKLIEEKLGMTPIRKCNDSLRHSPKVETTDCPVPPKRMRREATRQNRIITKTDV
UniProt A1L0T0: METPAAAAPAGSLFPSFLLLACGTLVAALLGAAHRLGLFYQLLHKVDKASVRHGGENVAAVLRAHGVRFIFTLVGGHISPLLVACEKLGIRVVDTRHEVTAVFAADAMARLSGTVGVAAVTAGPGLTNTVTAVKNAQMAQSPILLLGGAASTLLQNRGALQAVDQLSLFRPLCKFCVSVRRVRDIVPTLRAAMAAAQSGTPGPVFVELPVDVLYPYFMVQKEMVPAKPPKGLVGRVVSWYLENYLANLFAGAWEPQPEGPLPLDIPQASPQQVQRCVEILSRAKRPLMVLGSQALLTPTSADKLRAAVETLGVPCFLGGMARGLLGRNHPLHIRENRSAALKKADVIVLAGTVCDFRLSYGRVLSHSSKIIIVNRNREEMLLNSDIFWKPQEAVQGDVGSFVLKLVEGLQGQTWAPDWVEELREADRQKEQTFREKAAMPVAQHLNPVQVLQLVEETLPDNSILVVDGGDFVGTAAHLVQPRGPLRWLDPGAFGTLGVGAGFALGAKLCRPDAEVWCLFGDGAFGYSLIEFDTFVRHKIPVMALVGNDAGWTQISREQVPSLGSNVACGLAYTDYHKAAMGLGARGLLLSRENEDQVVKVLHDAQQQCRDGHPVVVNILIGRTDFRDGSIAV
UniProt A2RUB1: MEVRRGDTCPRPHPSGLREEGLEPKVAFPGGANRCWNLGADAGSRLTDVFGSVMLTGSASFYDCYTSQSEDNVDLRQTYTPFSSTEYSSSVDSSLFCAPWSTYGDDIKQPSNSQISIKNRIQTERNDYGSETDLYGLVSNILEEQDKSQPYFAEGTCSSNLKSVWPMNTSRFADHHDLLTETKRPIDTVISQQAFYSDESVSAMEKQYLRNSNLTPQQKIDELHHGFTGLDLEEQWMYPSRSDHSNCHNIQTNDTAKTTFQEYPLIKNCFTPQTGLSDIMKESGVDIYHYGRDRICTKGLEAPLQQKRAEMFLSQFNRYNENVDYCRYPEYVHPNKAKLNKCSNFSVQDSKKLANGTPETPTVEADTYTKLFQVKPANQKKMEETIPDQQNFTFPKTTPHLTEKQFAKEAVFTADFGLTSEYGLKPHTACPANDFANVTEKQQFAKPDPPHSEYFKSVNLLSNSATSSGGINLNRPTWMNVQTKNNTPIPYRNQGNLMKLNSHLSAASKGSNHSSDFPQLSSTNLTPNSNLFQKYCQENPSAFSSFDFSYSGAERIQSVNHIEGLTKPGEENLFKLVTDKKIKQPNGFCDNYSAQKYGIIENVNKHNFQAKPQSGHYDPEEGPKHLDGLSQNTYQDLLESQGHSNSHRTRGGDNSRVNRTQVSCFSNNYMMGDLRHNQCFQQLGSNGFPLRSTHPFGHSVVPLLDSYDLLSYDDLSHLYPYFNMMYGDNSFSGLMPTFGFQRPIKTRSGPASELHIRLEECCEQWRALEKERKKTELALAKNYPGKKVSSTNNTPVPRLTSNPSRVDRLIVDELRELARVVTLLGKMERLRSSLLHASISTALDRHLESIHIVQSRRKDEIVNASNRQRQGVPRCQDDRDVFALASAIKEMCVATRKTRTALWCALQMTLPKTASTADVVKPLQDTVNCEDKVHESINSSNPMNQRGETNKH
UniProt A5PLL7: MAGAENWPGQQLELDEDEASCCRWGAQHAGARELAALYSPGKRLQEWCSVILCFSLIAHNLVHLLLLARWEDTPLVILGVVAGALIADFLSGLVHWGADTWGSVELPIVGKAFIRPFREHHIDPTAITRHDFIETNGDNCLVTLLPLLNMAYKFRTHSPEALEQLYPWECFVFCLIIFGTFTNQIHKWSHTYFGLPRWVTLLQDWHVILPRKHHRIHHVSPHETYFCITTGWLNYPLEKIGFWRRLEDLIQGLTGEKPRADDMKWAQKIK

Row | Target | log2 ratio of iodoacetamide-alkyne labeling
1 | PGP C193 (UniProt A6NDG6) | inactive: -0.0768
2 | CNOT1 C624 (UniProt A5YKK6) | inactive: 0.347
3 | A0AVT1_C721 | inactive: 0.0661
4 | SMCHD1 C1124 (UniProt A6NHR9) | inactive: 0.17
5 | ILVBL C315 (UniProt A1L0T0) | inactive: 0.225
6 | UniProt A2RUB1_C269 | inactive: 0.363
7 | UniProt A0MZ66_C442 | inactive: 0.217
8 | SMCHD1 C59 (UniProt A6NHR9) | inactive: 0.182
9 | SMCHD1 C492 (UniProt A6NHR9) | inactive: 0.23
10 | UHRF1BP1L C633 (UniProt A0JNW5) | inactive: -0.28
11 | SMCHD1 C1656 (UniProt A6NHR9) | inactive: 0.256
12 | PGP C243 (UniProt A6NDG6) | inactive: 0.0497
13 | ZNF316 C650 (UniProt A6NFI3) | inactive: 0.386
14 | A0AVT1_C625 | inactive: 0.437
15 | CNOT1 C219 (UniProt A5YKK6) | inactive: 0.263
16 | TMEM189 C21 (UniProt A5PLL7) | active: 1.52
17 | TMEM189 C22 (UniProt A5PLL7) | active: 1.52
18 | GTPBP10 C338 (UniProt A4D1E9) | inactive: -0.201
19 | SMCHD1 C1856 (UniProt A6NHR9) | inactive: 0.734

Reformatted: results already given
Row	Target	log2 ratio of iodoacetamide-alkyne labeling
1	PGP C193 (UniProt A6NDG6)	inactive: -0.0768
5	ILVBL C315 (UniProt A1L0T0)	inactive: 0.225
17	TMEM189 C22 (UniProt A5PLL7)	active: 1.52

Remaining list, next part.

Row | Target | log2 ratio of iodoacetamide-alkyne labeling
20 | SMCHD1 C1899 (UniProt A6NHR9) | inactive: 0.338
21 | ILVBL C568 (UniProt A1L0T0) | inactive: 0.587
22 | UniProt A2RUB1_C664 | inactive: 0.522
23 | SMCHD1 C1917 (UniProt A6NHR9) | inactive: -0.0118
24 | A0AV96_C349 | inactive: -0.0266
25 | UHRF1BP1L C647 (UniProt A0JNW5) | inactive: 0.147
26 | SMCHD1 C84 (UniProt A6NHR9) | inactive: -0.0492
27 | SH3PXD2B C783 (UniProt A1X283) | inactive: 0.777
28 | CNOT1 C1541 (UniProt A5YKK6) | inactive: 0.498
29 | A0AVT1_C546 | inactive: 0.402
30 | UniProt A0MZ66_C565 | inactive: 0.734
31 | DDTL C24 (UniProt A6NHG4) | inactive: -0.0505
32 | C5orf51 C179 (UniProt A6NDU8) | inactive: 0.512
33 | UniProt A2RUB1_C342 | inactive: 0.75
34 | PGP C297 (UniProt A6NDG6) | active: 1.17
35 | A0AVT1_C347 | active: 2.27
36 | SMCHD1 C1823 (UniProt A6NHR9) | inactive: -0.0104
37 | SMCHD1 C1433 (UniProt A6NHR9) | inactive: 0.392

— the supplement of paper PMC11006884
